Patent US20090023810A1, “METHODS OF TRANSLATION AND/OR INFLAMMATION BLOCKADE” (priority 2007, published 2009)
At least one compound was matched to its structure with a doubt left. Some compounds share one wording; it may come from a single statement.

How the values were obtained:
HeLa cells = test: Stress granule (SG) formation in HeLa cells, immunocytochemistry; format: cell-based; settings: 30 minutes, TIA-1 antibody, FIG. 1A
Protocol: The immunocytochemical analyses of proteins were performed as described elsewhere (Kim et al., 2005, which is hereby incorporated by reference for all purposes as if fully set forth herein).
HeLa cells that were mock-treated (Mock) or treated with PGA1, 15d-PGJ2, PGE2, SA, arachidonic acid (AA), ciglitazone (Ci), troglitazone (Tro), and rosiglitazone (Rosi) (at indicated concentrations) for 30 minutes.
HeLa cells were treated with lovastatin (100 μM), lipoxin A4 (LXA4, 10 μM), lipoxin B4 (LXB4, 10 μM), epi-lipoxin A4 (epi-LxA4, 10 μM), TGF-β (100 ng/ml), interleukin-10 (IL-10, 100 ng/ml) for 1 hour.
Emetine freezes ribosomes in the polysomal state and inhibits SG formation (Anderson and Kedersha, 2006). HeLa cells that were pretreated for 1 hour with 10 μg/ml of emetine and then treated with 15d-PGJ2 (50 μM) for 1 hour, and subjected to immunocytochemical analyses.
The amounts of 15d-PGJ2 required for SG formation were measured.

HeLa lysates = test: In vitro translation in HeLa lysates; format: biochemical; settings: FIG. 5B
Protocol: In vitro translation reactions using HeLa cell lysates and RRL (rabbit reticulocyte lysate) are described elsewhere (Kim et al., 2004, which is hereby incorporated by reference for all purposes as if fully set forth herein).
In vitro translation reactions were performed with a Renilla luciferase mRNA (40 nM) in HeLa lysates and RRL (rabbit reticulocyte lysate) in the presence of vehicle (black columns), 50 μM 15d-PGJ2 (gray columns), or CAY10410 (white columns). Relative luciferase activities are shown in FIG. 8C, with mock-treated translation reactions set to 1. The bars indicate standard deviation values of three independent experiments.
In FIG. 5A, β-gal mRNA (40 nM) was translated in HeLa lysates for 1 h in the presence of PGA1 (2), 15d-PGJ2 (3) and PGE2 (4) at indicated concentrations. […]
In FIG. 5B, HeLa lysates that were pretreated with vehicle (1) or with indicated chemicals (2-9) for 30 minutes at indicated concentrations, a capped Renilla luciferase mRNA (40 nM) was added to the translation mixtures, and then incubated at 30° C. for 1 hour (grey columns). […] Phosphorylated eIF2α levels were monitored by Western-blot analyses (bottom panel). […] The molecular basis of this phenomenon remains to be determined. […]

eIF2α = test: Phosphorylated eIF2α levels in HeLa cell lysates (in vitro translation mixtures), Western blot; format: biochemical; settings: FIG. 5B lanes 2-8
Protocol: In FIG. 5B, HeLa lysates that were pretreated with vehicle (1) or with indicated chemicals (2-9) for 30 minutes at indicated concentrations, a capped Renilla luciferase mRNA (40 nM) was added to the translation mixtures, and then incubated at 30° C. for 1 hour (grey columns). White columns show the effects of the same set of chemicals added together with the reporter mRNA during 1 hour in vitro translation. Relative luciferase activities (mean values) are depicted by columns. Phosphorylated eIF2α levels were monitored by Western-blot analyses (bottom panel). […] The molecular basis of this phenomenon remains to be determined.
This would be the reason why translation is not inhibited by SA in the HeLa cell lysates (FIG. 5B, lane 8) unlike in the in vivo system where eIF2α is phosphorylated by SA ([…]).

| SMILES | SG formation (HeLa cells) | Translation of capped Renilla luciferase mRNA (HeLa lysates) | eIF2α phosphorylation (eIF2α) |
| --- | --- | --- | --- |
| Cc1c(C)c2c(c(C)c1O)CCC(C)(COc1ccc(CC3SC(=O)NC3=O)cc1)O2 (centres unmarked) [troglitazone] | did not induce SG formation |  |  |
| CN(CCOc1ccc(CC2SC(=O)NC2=O)cc1)c1ccccn1 (centres unmarked) [rosiglitazone] | did not induce SG formation | slightly increased translation in vitro | No increase of eIF2α phosphorylation |
| CC1(COc2ccc(CC3SC(=O)NC3=O)cc2)CCCCC1 (centres unmarked) [ciglitazone] | did not induce SG formation |  |  |
